Results on 2 molecules are retold here after publication PMC4682425.

These are yes or no findings as the source states them, for the method shown. Binding can be weak; no strength is given. For some of these results: Binding seen in cells or lysates may run through a third protein.

Assay [1] concerns the target OsCYP20-1 mature protein (amino acids 40-220), yeast two-hybrid bait (Oryza sativa). In words: two-hybrid; pGBK7 constructs (CYPs) and pGADT7 constructs (AtRCN1, AtGNOM-F, AtGNOM-N) co-transformed in yeast AH109; growth on SD/-WLH + 1.5 mM 3-AT; empty pGADT7 as negative control.
For assay [2], the target named is OsCYP19-4 mature protein (amino acids 29-208), yeast two-hybrid bait (Oryza sativa ssp. japonica). The assay is described as above.
For assay [3], the target named is OsCYP20-1 full length, BiFC construct in pSPYNE-35S (Oryza sativa). In words: split reporter; BiFC: CYPs in pSPYNE-35S and AtRCN1 in pSPYCE-35S co-infiltrated with the P19 silencing suppressor into 4-week-old N. benthamiana leaves; yellow fluorescent protein fluorescence at 24-48 h post-infiltration, confocal microscopy.
For assay [4], the target named is OsCYP19-4 full length, BiFC construct in pSPYNE-35S (Oryza sativa ssp. japonica). The description is as above.

B1: AtRCN1 full-length coding region, yeast two-hybrid prey (protein, UniProt Q38845 1-588)
chain: MAMVDEPLYPIAVLIDELKNDDIQLRLNSIRRLSTIARALGEERTRKELIPFLSENSDDDDEVLLAMAEELGVFIPFVGGIEFAHVLLPPLESLCTVEETCVREKAVESLCKIGSQMKENDLVESFVPLVKRLAGGEWFAARVSACGIFHVAYQGCTDVLKTELRATYSQLCKDDMPMVRRAAASNLGKFATTVESTFLIAEIMTMFDDLTKDDQDSVRLLAVEGCAALGKLLEPQDCVARILPVIVNFSQDKSWRVRYMVANQLYELCEAVGPDCTRTDLVPAYVRLLRDNEAEVRIAAAGKVTKFCRLLNPELAIQHILPCVKELSSDSSQHVRSALASVIMGMAPILGKDSTIEHLLPIFLSLLKDEFPDVRLNIISKLDQVNQVIGIDLLSQSLLPAIVELAEDRHWRVRLAIIEYVPLLASQLGIGFFDDKLGALCMQWLQDKVYSIREAAANNLKRLAEEFGPEWAMQHLVPQVLDMVNNPHYLHRMMVLRAISLMAPVMGSEITCSKFLPVVVEASKDRVPNIKFNVAKLLQSLIPIVDQSVVDKTIRQCLVDLSEDPDVDVRYFANQALNSIDGSTAAQS
Consider B1, for which the binding entry in assay [1] and in assay [2] was “binds” each time.

B2: AtRCN1, BiFC construct in pSPYCE-35S (protein, UniProt Q38845 1-588)
chain: B1 chain
Regarding B2, the binding entry in assay [3] and in assay [4] was “binds” each time.
